Literature values as cited in publication PMC11324126, “Novel coumarin-6-sulfonamide-chalcone hybrids as glutathione transferase P1-1 inhibitors” (PLOS ONE, 2024).

System: HepG2 cells
Set-up: method as in PMID 29944015
Settings: read-out: IC50 towards HepG2 cells; cited from earlier work

In the case of COc1cccc2c1C(=O)c1c(O)c3c(c(O)c1C2=O)C[C@@](O)(C(=O)CO)C[C@@H]3O[C@H]1C[C@H](N)[C@H](O)[C@H](C)O1 [doxorubicin], the IC50 is listed as 5.43 ± 0.24 µM.
